# Publication PMC8347876
# These are yes or no findings as the source states them, for the method shown. For some assays here: Binding seen in cells or lysates may run through a third protein. Some results given as binding are weak or reduced against the parent protein; the word gives no strength. For some assays here: Where a sequence is shown, tags or fusion partners need not be part of it.
# B1: N-terminal-deleted OSM34 (42-244) (domain or fragment, UniProt P50700 42-244)
# chain: GGGRRLDAGQSWRLDVAAGTKMARIWGRTNCNFDSSGRGRCQTGDCSGGLQCTGWGQPPNTLAEYALNQFNNLDFYDISLVDGFNIPMEFSPTSSNCHRILCTADINGQCPNVLRAPGGCNNPCTVFQTNQYCCTNGQGSCSDTEYSRFFKQRCPDAYSYPQDDPTSTFTCTNTNYRVVFCPRSRLGATGSHQLPIKMVTEEN
# B2: SKP2A-HA (protein, UniProt Q9LPL4 1-360)
# chain: MVMGGEASMELDQCFQKMKMEGISIKEWKDIPVELLMRILSLVDDRNVIVASGVCTGWRDAISFGLTRLRLSWCNNNMNSLVLSLVPKFVKLQTLNLRQDKPQLEDNAVEAIANHCHELQELDLSKSLKITDRSLYALAHGCPDLTKLNLSGCTSFSDTAIAYLTRFCRKLKVLNLCGCVKAVTDNALEAIGNNCNQMQSLNLGWCENISDDGVMSLAYGCPDLRTLDLCGCVLITDESVVALADWCVHLRSLGLYYCRNITDRAMYSLAQSGVKNKPGSWKSVKKGKYDEEGLRSLNISQCTALTPSAVQAVCDSFPALHTCSGRHSLVMSGCLNLTTVHCACILQAHRAHNAVPHPAH
# How the values were obtained:
# [1] = target: T1, SKP2A (1-360) (Arabidopsis thaliana) (UniProt Q9LPL4); experiment: two-hybrid; OSM34 (42-244) in pGADT7, SKP2A (1-360) in pGBKT7, co-transformed into yeast AH109; growth on QDO media (-Ade/-His/-Leu/-Trp) containing 10 mM 3-AT
# T1 sequence: B2 chain
# [2] = target: T2, OSM34-GFP (Arabidopsis thaliana) (UniProt P50700); experiment: co-IP; total protein extracts of Arabidopsis transgenic lines expressing either OSM34-GFP or SKP2A-HA mixed; anti-GFP-Sepharose beads, 4 °C overnight; 150 mM NaCl, 50 mM Tris pH 7.5, 0.01% NP-40, 10 mM MgCl2, 10% glycerol; blot with anti-HA
# T2 sequence: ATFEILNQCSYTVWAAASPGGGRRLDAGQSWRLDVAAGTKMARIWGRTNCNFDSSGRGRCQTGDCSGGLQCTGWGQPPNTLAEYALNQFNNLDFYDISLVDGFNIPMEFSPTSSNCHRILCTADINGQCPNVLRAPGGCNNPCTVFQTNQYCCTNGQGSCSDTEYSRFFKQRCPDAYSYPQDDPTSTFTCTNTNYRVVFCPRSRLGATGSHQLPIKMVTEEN
Binder,binding [1],binding [2]
B1,binds,–
B2,–,binds
